In the supplement of paper PMC3741180, “A Novel High Throughput Biochemical Assay to Evaluate the HuR Protein-RNA Complex Formation” (PLoS ONE, 2013):
Counter-ions that a name gives are not always drawn. This is one part of the list. Single values are uncertain here, since repeats match poorly.

The chains behind the UniProt entries cited, without tags or fusion partners.
UniProt Q15717, whole entry: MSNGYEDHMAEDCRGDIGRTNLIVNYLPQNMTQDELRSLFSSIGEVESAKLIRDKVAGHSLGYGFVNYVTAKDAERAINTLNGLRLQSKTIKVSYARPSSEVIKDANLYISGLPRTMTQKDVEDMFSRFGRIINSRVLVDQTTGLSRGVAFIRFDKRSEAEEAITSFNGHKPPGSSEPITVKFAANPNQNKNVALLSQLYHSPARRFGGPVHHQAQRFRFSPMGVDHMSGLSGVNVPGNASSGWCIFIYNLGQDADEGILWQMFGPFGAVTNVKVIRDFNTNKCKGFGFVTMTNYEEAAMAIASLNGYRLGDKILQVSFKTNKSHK

Each compound was assayed against HuR (ELAVL1) - TNFalpha ARE RNA complex (UniProt Q15717) (assay: AlphaScreen HuR-RNA complex signal Z-score relative to positive (Bi-TNF, DMSO) controls (Z-score (SD units of positive control)); higher = more complex signal). Details: screen stage: primary screen; compound concentration: 25 nM.

| SMILES | AlphaScreen HuR-RNA complex signal Z-score |
| --- | --- |
| COc1cc2nc(N3CCN(C(=O)C4COc5ccccc5O4)CC3)nc(N)c2cc1OC (stereo not drawn) | 2.32 |
| CC(=O)Nc1ccc(OC(=O)c2ccccc2O)cc1 | 1.02 |
| COC(=O)C[C@H]1C2(C)CC34OC5(C)O[C@@]6([C@H](OC(C)=O)C(OC(C)=O)[C@]7(C)C(/C(=C(/O)C(C)C)C(=O)O[C@H]7c7ccoc7)[C@@]6(O5)[C@H](OC(C)=O)[C@@]3(O)C2OC(=O)C(C)C)[C@]14C (stereo partly drawn) | 0.872 |
| CC(C)(CO)[C@@H](O)C(=O)NCCC(=O)O [PANTOTHENIC ACID(d) Na salt] | 5.41 |
| Cc1cc(C(C)(C)C)cc(C)c1CC1=NCCN1 | -1.88 |
| CCN(CCCCOC(=O)c1ccc(OC)c(OC)c1)C(C)Cc1ccc(OC)cc1 (stereo not drawn) | 0.906 |
| CC(=O)O[C@@H]1CC(=O)[C@@]2(C)C(CC(=O)[C@]3(C)C2CC[C@@]2(C)[C@H](c4ccoc4)OC(=O)C4OC423)C1(C)C (stereo partly drawn) | -1 |
| CCOC(=O)c1c(C)cc(OC)cc1O | 2.15 |
| CCN(CC)CCOCCOC(=O)C1(c2ccccc2)CCCC1 | 0.157 |
| O[C@H]1[C@H](O)[C@@H](O)C2OC[C@H]1O2 | 0.0512 |
| CCN(CC)CCNC(=O)c1ccc(N)cc1 | 8.11 |
| NC[C@H](O)c1ccc(O)c(O)c1 | 4.95 |
| O=C(Oc1cc(O)cc2c1C[C@@H](OC(=O)c1cc(O)c(O)c(O)c1)[C@@H](c1cc(O)c(O)c(O)c1)O2)c1cc(O)c(O)c(O)c1 | 0.892 |
| CCCCCCOc1ccccc1C(N)=O | 1.88 |
| CCN(CC)[N+]([O-])=NO | -0.792 |
| O=C(O)C1=C(CSc2nnnn2CS(=O)(=O)O)CS[C@@H]2[C@H](NC(=O)[C@H](O)c3ccccc3)C(=O)N12 | 1.11 |
| CC(C)CC(NC(=O)[C@H](C)N)C(=O)O (mixture of isomers) | 1.18 |
| COc1cc2ccc(=O)oc2c(O)c1O | 1.74 |
| Nc1ccc(S(=O)(=O)Nc2nccs2)cc1 | 23.8 |
| COC(=O)C(O)c1ccccc1 (stereo not drawn) | 0.686 |
| O=C1c2ccccc2C(=O)c2c(O)c(O)cc(O)c21 | 1.7 |
| Cc1ccc(-c2cc(C(F)(F)F)nn2-c2ccc(S(N)(=O)=O)cc2)cc1 | -0.261 |
| CC(C)[N+]1(C)[C@@H]2CC[C@H]1C[C@@H](OC(=O)C(CO)c1ccccc1)C2 (stereo partly drawn) | -5.78 |
| C[C@@H]1CCC[C@H](C)N1NC(=O)c1ccc(Cl)c(S(N)(=O)=O)c1 | 1.2 |
| CN[C@H]1CC[C@@H](c2ccc(Cl)c(Cl)c2)c2ccccc21 | -1.58 |
| CCOC(=O)C(Cc1ccc(O)cc1)NC(C)=O (stereo not drawn) | 2.05 |
| CC(=O)C1CCC2C3CC=C4CC(OS(=O)(=O)O)CCC4(C)C3CCC12C (stereo not drawn) | 1.23 |
| O=C(/C=C/c1ccc(O)c(O)c1)O[C@H](Cc1ccc(O)c(O)c1)C(=O)O | 2.06 |

Random excerpt: 2 compounds from above.

| SMILES | AlphaScreen HuR-RNA complex signal Z-score |
| --- | --- |
| CCN(CC)CCNC(=O)c1ccc(N)cc1 | 8.11 |
| Nc1ccc(S(=O)(=O)Nc2nccs2)cc1 | 23.8 |
